# Results from PubChem BioAssay AID720697 (Broad Institute, 2013).
# The shares of active, inactive and inconclusive entries below differ from those in the screen. Calls of active or inactive are those of the source.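 Rule for the calls: active = signal loss with fitted half-maximal concentration at or below twice the top valid tested dose in every test run; inconclusive = runs disagree, flat 30 to 70% signal loss, or poor fit; inactive = all runs flat, opposite direction, or potency beyond limit.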
# Assay: general mammalian cell viability loss – inhibitor set, cherry-pick, set 2, cytotoxicity control for miR-122 modulator project, dose response (AID 720697);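 note: 0% = median of neutral control wells and -100% = MG132 positive control wells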
# Conditions: HEK293T viability, CellTiter-Glo luminescence, 48 h; at 26 µM (top of the series) unless noted
row,SMILES,"activity change, negative = cytotoxicity"
1,CCCNC(=O)C[C@H]1CC[C@@H]2[C@H](COc3ccc(NC(=O)c4cc(F)cc(F)c4)cc3C(=O)N2C)O1,inconclusive: -49.4%
2,CN(c1ccccc1)S(=O)(=O)c1ccc(C(=O)Nc2cccc(S(=O)(=O)N3CCOCC3)c2)cc1,inactive: -17.8%
3,CC(=O)N(C[C@@H]1N[C@@H](CO)[C@H]1c1ccc(-c2ccccc2)cc1)C(C)C,inactive: 51.5%
4,O=C(C1CCCC1)N1C[C@H]2[C@@H](c3ccccc31)[C@H](CO)N2C(=O)Nc1cccc(F)c1,inconclusive: -80.2%
5,CNC(=O)C[C@H]1CC[C@H]2[C@H](COc3ccc(NC(=O)c4cccc(OC)c4)cc3C(=O)N2C)O1,inactive: 66.9%
6,COC(=O)C[C@H]1CC[C@@H]2[C@@H](COc3ccc(NC(=O)Nc4cccc(F)c4)cc3C(=O)N2C)O1,inconclusive: -51.3%
7,COc1cccc(NC(=O)N2[C@H](CO)[C@@H](c3ccccc3)[C@H]2CNCC(C)C)c1,inactive: -37.2%
8,C/C=C/c1ccc([C@H]2[C@@H](CO)N(C(C)=O)[C@@H]2CN(C(=O)COC)C(C)C)cc1,inconclusive: -49.9%
9,C[C@H]1CN([C@@H](C)CO)C(=O)c2cc(NC(=O)Nc3ccc(C(F)(F)F)cc3)ccc2O[C@H]1CN(C)CC1CCCCC1,inconclusive: -40.7%
10,C[C@H]1CN([C@@H](C)CO)C(=O)c2cc(C#CC3CCCC3)cnc2O[C@H]1CN(C)C(=O)Cc1ccccn1,inactive: -5.5%
11,CCCC(=O)Nc1ccc2c(c1)C(=O)N(C)[C@@H]1CC[C@@H](CC(=O)NCC(F)(F)F)O[C@H]1CO2,inconclusive: -39.6%
12,COc1ccccc1NC(=O)Nc1ccc2c(c1)C(=O)N(C)[C@H]1CC[C@H](CC(=O)Nc3ccc4c(c3)COC4)O[C@@H]1CO2,inconclusive: -53.4%
13,CNC[C@@H]1Oc2cc(C#CC3CCCC3)ccc2S(=O)(=O)N([C@@H](C)CO)C[C@@H]1C,inconclusive: 56.5%
14,Cc1onc(-c2ccccc2)c1C(=O)NCc1ccccn1,inactive: 94.7%
15,CCCNC(=O)N1[C@H](CO)[C@@H](c2ccccc2)[C@H]1CNC(=O)c1ccccc1,inactive: 70.2%
16,C[C@@H]1CCCCO[C@H](CN(C)CC2CCCCC2)[C@H](C)CN([C@@H](C)CO)C(=O)c2cc(NC(=O)Nc3ccc(C(F)(F)F)cc3)ccc2O1,inconclusive: 87.1%
17,NC(=O)c1cn(-c2ccccc2)nc1-c1cc2ccccc2oc1=O,inactive: 66.9%
18,Cc1ccccc1-c1ccc2c(c1)O[C@@H](CN(C)C(=O)Nc1ccc(F)cc1)[C@@H](C)CN([C@@H](C)CO)S2(=O)=O,inactive: 66.7%

# Given tab-delimited: part of the list above
row	SMILES	activity change, negative = cytotoxicity
3	CC(=O)N(C[C@@H]1N[C@@H](CO)[C@H]1c1ccc(-c2ccccc2)cc1)C(C)C	inactive: 51.5%
9	C[C@H]1CN([C@@H](C)CO)C(=O)c2cc(NC(=O)Nc3ccc(C(F)(F)F)cc3)ccc2O[C@H]1CN(C)CC1CCCCC1	inconclusive: -40.7%

# (next part)

row,SMILES,"activity change, negative = cytotoxicity"
1,CC(=O)NC(c1ccc(C)cc1)c1cc(Cl)c2cccnc2c1O (stereo not given),inconclusive: -56.5%
2,COCCN(C[C@H]1[C@@H](c2ccccc2)[C@H](CO)N1C(=O)C1CCC1)C(C)=O,inconclusive: -33.6%
3,CN1C(=O)c2cc(NC(=O)c3cccs3)ccc2OC[C@@H]2O[C@@H](CC(=O)O)CC[C@H]21,inconclusive: -54.7% [at 23.5 µM]
4,O=C(C1CCOCC1)N1C[C@H]2[C@@H](c3ccccc31)[C@@H](CO)N2Cc1ccccc1,inconclusive: -47.4%
5,CN1C(=O)c2cc(NC(=O)Nc3ccccc3Cl)ccc2OC[C@H]2O[C@H](CC(=O)O)CC[C@@H]21,inconclusive: -22.1%
6,O=C(c1ccccc1)N1C[C@H]2[C@@H](c3ccccc31)[C@@H](CO)N2C(=O)CN1CCOCC1,inactive: 15.9%
7,COC(=O)C[C@@H]1CC[C@@H]2[C@H](COc3ccc(NS(=O)(=O)c4ccc(F)cc4)cc3C(=O)N2C)O1,inconclusive: -37.8%
8,C[C@@H]1CN([C@@H](C)CO)C(=O)Cc2cc(NC(=O)Nc3ccc(C(F)(F)F)cc3)ccc2O[C@H]1CN(C)Cc1ccc(Oc2ccccc2)cc1,inconclusive: -153%
9,CN1C(=O)c2cc(NC(=O)c3ccc(C(F)(F)F)cc3)ccc2OC[C@@H]2O[C@H](CC(=O)NCc3ccc4c(c3)OCO4)CC[C@H]21,inconclusive: -58.9%
10,O=C(C1CCOCC1)N1[C@H](CO)[C@H]2c3ccccc3NC[C@H]21,inconclusive: -45.1% [at 23.5 µM]
11,CC(C)C(=O)Nc1ccc2c(c1)C(=O)N(C)[C@H]1CC[C@@H](CC(=O)NCCCN(C)C)O[C@H]1CO2,inactive: 82%
12,Cc1ccc(-c2ccc3c(c2)O[C@H](CN(C)Cc2cncnc2)[C@H](C)CN([C@@H](C)CO)S3(=O)=O)cc1,inconclusive: 0.98%
13,COc1ccc(NC(=O)N2CCCCN3[C@H](CO)[C@H](c4ccc(C#CCC(C)C)cc4)[C@H]3C2)cc1,inconclusive: -141%
14,CC(C)C#Cc1ccc2c(c1)O[C@H](CN(C)C(=O)Nc1ccccc1)[C@H](C)CN([C@@H](C)CO)S2(=O)=O,inconclusive: -74.8%
15,CCCC#Cc1ccc2c(c1)O[C@H](CN(C)C(=O)c1ccncc1)[C@H](C)CN([C@@H](C)CO)S2(=O)=O,inconclusive: -48.7%
16,C[C@H]1CN([C@@H](C)CO)C(=O)c2cc(C#Cc3ccccc3F)cnc2O[C@@H]1CN(C)C(=O)C1CCCCC1,inconclusive: -57.3%
17,CN1C(=O)c2cc(NC(=O)c3cccc(F)c3)ccc2OC[C@H]2O[C@@H](CC(=O)O)CC[C@@H]21,inactive: 123%
